Nine molecules from article doi:10.1101/2025.01.15.633117 can be followed below.

The chains behind the UniProt entries cited, without tags or fusion partners. Residues count along the entry.
UniProt Q01973, residues 30-937: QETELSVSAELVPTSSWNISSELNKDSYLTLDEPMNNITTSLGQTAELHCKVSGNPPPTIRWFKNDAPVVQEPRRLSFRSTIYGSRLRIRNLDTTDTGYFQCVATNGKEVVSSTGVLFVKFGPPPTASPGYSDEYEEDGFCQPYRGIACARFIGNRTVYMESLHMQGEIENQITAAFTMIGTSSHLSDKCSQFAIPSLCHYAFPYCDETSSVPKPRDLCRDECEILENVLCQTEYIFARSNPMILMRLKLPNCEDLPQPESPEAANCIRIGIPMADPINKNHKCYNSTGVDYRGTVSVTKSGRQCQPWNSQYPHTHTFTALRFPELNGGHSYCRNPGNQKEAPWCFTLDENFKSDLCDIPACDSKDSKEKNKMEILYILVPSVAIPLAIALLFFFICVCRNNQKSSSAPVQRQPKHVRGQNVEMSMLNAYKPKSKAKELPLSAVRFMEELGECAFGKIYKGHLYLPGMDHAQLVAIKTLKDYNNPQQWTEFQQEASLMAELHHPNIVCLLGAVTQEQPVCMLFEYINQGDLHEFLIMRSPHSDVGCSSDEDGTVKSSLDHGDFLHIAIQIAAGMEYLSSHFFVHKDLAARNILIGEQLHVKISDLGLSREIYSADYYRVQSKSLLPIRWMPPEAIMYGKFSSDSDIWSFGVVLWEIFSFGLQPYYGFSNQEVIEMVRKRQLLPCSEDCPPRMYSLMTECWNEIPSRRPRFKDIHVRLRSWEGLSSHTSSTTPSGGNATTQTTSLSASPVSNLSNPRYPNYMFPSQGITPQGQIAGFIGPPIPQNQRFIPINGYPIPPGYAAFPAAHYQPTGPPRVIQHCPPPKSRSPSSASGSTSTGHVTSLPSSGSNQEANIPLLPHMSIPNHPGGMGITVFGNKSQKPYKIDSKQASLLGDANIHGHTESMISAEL
UniProt Q01974, residues 34-943: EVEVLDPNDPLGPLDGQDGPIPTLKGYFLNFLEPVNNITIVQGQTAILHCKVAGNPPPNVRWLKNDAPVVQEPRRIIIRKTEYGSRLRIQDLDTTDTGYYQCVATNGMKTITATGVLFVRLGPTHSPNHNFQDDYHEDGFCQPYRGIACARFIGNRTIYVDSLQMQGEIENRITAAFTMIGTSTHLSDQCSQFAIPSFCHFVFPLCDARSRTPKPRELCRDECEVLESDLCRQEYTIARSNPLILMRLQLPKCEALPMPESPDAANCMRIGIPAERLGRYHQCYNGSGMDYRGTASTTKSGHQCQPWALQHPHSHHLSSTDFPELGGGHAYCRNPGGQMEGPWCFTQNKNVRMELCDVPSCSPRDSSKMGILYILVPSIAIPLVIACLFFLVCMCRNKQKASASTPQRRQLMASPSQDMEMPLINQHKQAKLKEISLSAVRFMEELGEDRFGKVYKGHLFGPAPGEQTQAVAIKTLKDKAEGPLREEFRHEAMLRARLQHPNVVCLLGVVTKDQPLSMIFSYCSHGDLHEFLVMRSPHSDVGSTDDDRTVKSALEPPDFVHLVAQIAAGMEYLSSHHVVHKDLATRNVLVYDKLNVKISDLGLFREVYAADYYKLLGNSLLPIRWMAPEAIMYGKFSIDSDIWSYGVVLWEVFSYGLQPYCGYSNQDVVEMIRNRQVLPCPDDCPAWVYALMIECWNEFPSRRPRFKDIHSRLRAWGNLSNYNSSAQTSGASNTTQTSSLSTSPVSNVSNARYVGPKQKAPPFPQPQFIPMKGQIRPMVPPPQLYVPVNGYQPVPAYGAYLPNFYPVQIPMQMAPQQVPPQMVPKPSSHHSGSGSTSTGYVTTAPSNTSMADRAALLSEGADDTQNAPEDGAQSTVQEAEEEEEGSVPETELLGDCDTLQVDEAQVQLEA
UniProt P29317, residues 24-976: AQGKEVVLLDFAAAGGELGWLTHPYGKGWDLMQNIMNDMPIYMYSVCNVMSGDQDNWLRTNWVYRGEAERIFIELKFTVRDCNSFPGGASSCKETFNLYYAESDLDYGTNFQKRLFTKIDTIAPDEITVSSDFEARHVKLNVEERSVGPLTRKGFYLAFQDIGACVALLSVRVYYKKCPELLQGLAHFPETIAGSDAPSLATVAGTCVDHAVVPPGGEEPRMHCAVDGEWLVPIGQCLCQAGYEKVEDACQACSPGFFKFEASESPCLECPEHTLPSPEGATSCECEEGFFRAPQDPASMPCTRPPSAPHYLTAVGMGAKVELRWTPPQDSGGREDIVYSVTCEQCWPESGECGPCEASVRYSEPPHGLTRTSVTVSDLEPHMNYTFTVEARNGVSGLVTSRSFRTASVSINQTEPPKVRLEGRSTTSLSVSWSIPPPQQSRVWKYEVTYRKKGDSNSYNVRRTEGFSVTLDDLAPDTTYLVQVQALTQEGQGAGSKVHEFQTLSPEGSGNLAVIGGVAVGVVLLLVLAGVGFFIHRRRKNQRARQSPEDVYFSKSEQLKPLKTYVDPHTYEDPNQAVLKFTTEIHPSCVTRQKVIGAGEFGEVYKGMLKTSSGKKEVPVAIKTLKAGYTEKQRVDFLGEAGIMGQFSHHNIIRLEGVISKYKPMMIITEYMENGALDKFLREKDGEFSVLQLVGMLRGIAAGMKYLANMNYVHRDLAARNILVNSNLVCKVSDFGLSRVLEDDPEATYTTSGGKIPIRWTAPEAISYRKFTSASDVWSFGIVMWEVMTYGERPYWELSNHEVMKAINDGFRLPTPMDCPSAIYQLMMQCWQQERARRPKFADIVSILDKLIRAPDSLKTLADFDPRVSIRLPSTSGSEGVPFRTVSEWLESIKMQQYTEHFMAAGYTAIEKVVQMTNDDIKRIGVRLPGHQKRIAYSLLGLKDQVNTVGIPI
UniProt Q8TEW0: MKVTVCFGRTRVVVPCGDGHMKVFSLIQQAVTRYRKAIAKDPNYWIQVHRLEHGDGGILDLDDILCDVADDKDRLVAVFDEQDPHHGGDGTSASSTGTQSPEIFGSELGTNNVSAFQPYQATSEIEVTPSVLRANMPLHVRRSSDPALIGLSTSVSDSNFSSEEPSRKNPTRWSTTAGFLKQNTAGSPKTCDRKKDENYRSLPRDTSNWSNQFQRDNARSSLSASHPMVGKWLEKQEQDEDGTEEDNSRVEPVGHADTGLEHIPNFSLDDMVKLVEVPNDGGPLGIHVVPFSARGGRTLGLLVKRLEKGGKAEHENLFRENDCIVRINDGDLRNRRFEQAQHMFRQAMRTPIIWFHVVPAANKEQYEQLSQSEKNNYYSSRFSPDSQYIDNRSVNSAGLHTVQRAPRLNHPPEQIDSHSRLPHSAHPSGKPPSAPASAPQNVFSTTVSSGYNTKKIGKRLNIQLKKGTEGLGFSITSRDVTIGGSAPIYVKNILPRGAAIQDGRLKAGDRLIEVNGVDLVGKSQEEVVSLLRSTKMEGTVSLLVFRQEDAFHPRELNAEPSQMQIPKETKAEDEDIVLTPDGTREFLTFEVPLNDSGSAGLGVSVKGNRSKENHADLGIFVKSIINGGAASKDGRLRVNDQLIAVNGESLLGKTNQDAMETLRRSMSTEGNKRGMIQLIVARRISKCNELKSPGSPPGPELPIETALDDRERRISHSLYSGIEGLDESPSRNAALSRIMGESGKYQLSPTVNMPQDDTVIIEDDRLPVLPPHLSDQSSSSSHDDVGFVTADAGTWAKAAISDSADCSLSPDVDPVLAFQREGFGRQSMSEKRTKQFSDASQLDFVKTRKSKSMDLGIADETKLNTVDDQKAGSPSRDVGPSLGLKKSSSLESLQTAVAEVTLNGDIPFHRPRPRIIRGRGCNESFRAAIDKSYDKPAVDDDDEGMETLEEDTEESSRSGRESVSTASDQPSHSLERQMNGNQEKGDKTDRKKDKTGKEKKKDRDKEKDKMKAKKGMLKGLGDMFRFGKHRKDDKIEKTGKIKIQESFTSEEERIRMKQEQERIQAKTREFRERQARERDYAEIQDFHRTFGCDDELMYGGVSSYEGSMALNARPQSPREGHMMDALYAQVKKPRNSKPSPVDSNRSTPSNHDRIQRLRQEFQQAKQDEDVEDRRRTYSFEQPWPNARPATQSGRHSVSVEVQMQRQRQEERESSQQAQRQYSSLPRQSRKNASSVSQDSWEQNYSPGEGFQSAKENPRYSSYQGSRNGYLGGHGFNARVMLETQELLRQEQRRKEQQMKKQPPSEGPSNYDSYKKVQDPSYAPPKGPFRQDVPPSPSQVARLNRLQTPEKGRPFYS
UniProt Q9C0D5: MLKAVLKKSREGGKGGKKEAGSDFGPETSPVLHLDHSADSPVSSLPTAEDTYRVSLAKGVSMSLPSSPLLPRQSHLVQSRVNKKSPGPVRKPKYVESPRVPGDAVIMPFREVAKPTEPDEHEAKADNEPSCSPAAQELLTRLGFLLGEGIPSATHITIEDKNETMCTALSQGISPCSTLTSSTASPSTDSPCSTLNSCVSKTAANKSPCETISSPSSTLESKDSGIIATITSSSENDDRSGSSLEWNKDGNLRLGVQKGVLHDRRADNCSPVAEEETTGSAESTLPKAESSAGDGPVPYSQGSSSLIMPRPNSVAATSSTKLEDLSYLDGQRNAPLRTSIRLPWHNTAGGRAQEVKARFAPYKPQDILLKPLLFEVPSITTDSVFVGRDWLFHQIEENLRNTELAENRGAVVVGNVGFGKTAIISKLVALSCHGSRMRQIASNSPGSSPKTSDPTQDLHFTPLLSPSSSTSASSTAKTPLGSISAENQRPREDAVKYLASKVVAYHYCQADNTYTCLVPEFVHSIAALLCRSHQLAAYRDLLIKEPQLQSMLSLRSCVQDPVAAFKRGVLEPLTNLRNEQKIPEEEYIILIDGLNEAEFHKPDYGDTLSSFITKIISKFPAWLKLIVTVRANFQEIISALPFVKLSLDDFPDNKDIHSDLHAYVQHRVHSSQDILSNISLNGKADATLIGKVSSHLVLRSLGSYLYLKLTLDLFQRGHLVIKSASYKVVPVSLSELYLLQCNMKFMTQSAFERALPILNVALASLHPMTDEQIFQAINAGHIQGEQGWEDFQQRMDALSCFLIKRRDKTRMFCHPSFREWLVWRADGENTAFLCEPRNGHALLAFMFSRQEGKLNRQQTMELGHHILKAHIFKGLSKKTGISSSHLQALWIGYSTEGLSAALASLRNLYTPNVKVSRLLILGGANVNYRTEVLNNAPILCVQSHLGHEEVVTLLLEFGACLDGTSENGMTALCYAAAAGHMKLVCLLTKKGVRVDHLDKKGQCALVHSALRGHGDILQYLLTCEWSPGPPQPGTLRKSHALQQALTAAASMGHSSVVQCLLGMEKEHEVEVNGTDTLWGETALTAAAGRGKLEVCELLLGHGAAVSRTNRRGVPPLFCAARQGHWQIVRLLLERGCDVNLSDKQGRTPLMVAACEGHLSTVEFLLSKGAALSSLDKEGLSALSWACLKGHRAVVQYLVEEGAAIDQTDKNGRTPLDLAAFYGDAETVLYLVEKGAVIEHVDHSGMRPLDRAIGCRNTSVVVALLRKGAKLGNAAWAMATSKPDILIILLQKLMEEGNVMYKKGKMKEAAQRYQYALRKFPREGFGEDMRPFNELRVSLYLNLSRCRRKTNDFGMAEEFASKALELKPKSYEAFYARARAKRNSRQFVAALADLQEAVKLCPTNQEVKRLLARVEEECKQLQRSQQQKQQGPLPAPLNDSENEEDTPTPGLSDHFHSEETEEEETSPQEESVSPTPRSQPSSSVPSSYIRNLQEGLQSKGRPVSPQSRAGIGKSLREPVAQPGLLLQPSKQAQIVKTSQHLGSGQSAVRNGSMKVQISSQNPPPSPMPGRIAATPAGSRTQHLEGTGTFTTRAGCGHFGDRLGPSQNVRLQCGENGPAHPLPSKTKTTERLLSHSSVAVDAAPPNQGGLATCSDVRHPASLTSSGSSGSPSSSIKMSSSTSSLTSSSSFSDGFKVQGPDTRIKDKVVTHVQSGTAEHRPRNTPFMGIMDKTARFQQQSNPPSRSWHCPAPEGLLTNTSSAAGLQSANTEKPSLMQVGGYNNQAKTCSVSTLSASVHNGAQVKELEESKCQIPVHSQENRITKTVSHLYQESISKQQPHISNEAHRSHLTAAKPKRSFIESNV

Read-outs that look alike come from different tables or passages of the source. These are yes or no findings as the source states them, for the method shown. Binding seen in cells or lysates may run through a third protein. These calls come from enrichment with a bait or labelling near it, and not all partners need be listed. For part of these data: Tags and fused reporters may be left off the sequences shown.

What all share (experiment): proximity labelling
Assay [1] deals with T1, MYC-BirA*-PRICKLE1 (human) (UniProt Q96MT3).
T1 sequence: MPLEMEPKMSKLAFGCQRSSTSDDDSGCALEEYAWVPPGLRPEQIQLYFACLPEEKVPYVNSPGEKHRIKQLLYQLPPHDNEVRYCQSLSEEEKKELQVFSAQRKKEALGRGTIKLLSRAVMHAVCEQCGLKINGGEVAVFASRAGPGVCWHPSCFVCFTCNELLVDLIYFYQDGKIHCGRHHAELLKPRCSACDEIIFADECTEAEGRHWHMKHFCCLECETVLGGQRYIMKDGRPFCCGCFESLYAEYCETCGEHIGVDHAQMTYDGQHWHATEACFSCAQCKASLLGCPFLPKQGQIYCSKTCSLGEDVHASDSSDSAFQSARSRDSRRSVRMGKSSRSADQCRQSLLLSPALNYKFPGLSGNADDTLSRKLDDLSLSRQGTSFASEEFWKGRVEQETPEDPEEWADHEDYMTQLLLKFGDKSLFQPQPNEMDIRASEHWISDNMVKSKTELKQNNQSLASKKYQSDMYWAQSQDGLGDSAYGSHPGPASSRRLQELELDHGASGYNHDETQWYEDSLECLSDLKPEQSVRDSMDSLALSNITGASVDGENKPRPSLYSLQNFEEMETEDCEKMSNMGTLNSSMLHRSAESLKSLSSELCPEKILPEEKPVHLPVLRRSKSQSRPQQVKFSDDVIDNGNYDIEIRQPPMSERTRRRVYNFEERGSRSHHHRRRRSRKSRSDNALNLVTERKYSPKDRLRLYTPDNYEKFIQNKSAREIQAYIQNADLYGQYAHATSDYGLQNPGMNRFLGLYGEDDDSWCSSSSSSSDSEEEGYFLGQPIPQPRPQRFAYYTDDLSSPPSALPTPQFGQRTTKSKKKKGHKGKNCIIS

The target in assay [2] is ROR1-BirA*-HA (human) (UniProt Q01973).
The target of assay [3] is ROR2-BirA*-HA (human) (UniProt Q01974).
For assay [4], the target named is T2, PHACTR4-V5-miniTurboID (human) (UniProt Q8IZ21).
T2 sequence: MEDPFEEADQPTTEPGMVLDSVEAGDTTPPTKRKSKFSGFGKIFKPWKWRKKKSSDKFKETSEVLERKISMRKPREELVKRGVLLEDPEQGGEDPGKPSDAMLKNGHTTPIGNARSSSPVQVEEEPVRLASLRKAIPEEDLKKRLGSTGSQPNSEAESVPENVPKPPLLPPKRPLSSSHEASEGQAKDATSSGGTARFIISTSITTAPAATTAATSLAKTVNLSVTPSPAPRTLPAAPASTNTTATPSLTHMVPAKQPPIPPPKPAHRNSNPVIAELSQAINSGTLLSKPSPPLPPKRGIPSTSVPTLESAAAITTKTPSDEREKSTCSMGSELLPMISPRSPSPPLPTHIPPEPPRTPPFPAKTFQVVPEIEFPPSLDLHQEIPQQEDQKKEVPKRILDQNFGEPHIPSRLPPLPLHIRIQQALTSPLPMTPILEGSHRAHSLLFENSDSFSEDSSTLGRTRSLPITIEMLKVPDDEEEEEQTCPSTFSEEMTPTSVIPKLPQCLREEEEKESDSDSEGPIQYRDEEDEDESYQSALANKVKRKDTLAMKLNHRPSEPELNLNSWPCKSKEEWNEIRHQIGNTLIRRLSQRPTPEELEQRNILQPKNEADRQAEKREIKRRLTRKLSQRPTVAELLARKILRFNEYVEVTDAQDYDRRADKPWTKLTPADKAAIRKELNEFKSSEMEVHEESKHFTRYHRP

Assay [5] addresses T1, MYC-BirA*-PRICKLE1 (human). This is another data set of the same source.
Assay [6] deals with ROR1-BirA*-HA (human) (UniProt Q01973). This is another data set of the same source.
The target of assay [7] is ROR2-BirA*-HA (human) (UniProt Q01974). The source holds these as a separate data set.

Consider AHNAK2 (from UniProt Q8IVF2 1-5795), for which the binding entry (in assay [1]; in the assay with ROR1-BirA*-HA (human) [2]; with ROR2-BirA*-HA (human) [3]) was “binds” in each case.

Consider “CELSR1 (from UniProt Q9NYQ6 21-3014) (receptor)”, for which the binding result in assay [4] was “binds”.

On to “CELSR2 (from UniProt Q9HCU4 32-2923) (receptor)”, for which the binding entry in assay [4] was “binds”.

Take “EPHA2 (endogenous) (from UniProt P29317 24-976) (receptor)”: the binding result (in assay [1]; with ROR1-BirA*-HA (human) [2]; in the assay with ROR2-BirA*-HA (human) [3]) was “binds” throughout.

For PARD3 (from UniProt Q8TEW0 1-1356), the binding entry (in assay [1]; with ROR1-BirA*-HA (human) [2]; with ROR2-BirA*-HA (human) [3]) was “binds” throughout.

As to SCRIB (from UniProt Q14160 1-1655), the binding result (in assay [1]; with ROR1-BirA*-HA (human) [2]; with ROR2-BirA*-HA (human) [3]) was “binds” each time.

Take “SMURF2 (from UniProt Q9HAU4 1-748) (enzyme)”: the binding result in assay [4] was “binds”.

For TANC1 (from UniProt Q9C0D5 1-1861), the binding result (in assay [1]; in the assay with ROR1-BirA*-HA (human) [2]; in the assay with ROR2-BirA*-HA (human) [3]) was “binds” throughout.

B1: RAI14 (endogenous) (protein, UniProt Q9P0K7 1-980)
chain: MKSLKAKFRKSDTNEWNKNDDRLLQAVENGDAEKVASLLGKKGASATKHDSEGKTAFHLAAAKGHVECLRVMITHGVDVTAQDTTGHSALHLAAKNSHHECIRKLLQSKCPAESVDSSGKTALHYAAAQGCLQAVQILCEHKSPINLKDLDGNIPLLLAVQNGHSEICHFLLDHGADVNSRNKSGRTALMLACEIGSSNAVEALIKKGADLNLVDSLGYNALHYSKLSENAGIQSLLLSKISQDADLKTPTKPKQHDQVSKISSERSGTPKKRKAPPPPISPTQLSDVSSPRSITSTPLSGKESVFFAEPPFKAEISSIRENKDRLSDSTTGADSLLDISSEADQQDLLSLLQAKVASLTLHNKELQDKLQAKSPKEAEADLSFDSYHSTQTDLGPSLGKPGETSPPDSKSSPSVLIHSLGKSTTDNDVRIQQLQEILQDLQKRLESSEAERKQLQVELQSRRAELVCLNNTEISENSSDLSQKLKETQSKYEEAMKEVLSVQKQMKLGLVSPESMDNYSHFHELRVTEEEINVLKQDLQNALEESERNKEKVRELEEKLVEREKGTVIKPPVEEYEEMKSSYCSVIENMNKEKAFLFEKYQEAQEEIMKLKDTLKSQMTQEASDEAEDMKEAMNRMIDELNKQVSELSQLYKEAQAELEDYRKRKSLEDVTAEYIHKAEHEKLMQLTNVSRAKAEDALSEMKSQYSKVLNELTQLKQLVDAQKENSVSITEHLQVITTLRTAAKEMEEKISNLKEHLASKEVEVAKLEKQLLEEKAAMTDAMVPRSSYEKLQSSLESEVSVLASKLKESVKEKEKVHSEVVQIRSEVSQVKREKENIQTLLKSKEQEVNELLQKFQQAQEELAEMKRYAESSSKLEEDKDKKINEMSKEVTKLKEALNSLSQLSYSTSSSKRQSQQLEALQQQVKQLQNQLAECKKQHQEVISVYRMHLLYAVQGQMDEDVQKVLKQILTMCKNQSQKK
Turning to B1, the binding entry (in assay [5]; in the assay with ROR1-BirA*-HA (human) [6]; in the assay with ROR2-BirA*-HA (human) [7]) was “binds” each time.
